The target in experiment [1] is T1, PHF10A isoform of PHF10 (mouse (endogenous in brain)) (UniProt Q9D8M7).
T1 sequence: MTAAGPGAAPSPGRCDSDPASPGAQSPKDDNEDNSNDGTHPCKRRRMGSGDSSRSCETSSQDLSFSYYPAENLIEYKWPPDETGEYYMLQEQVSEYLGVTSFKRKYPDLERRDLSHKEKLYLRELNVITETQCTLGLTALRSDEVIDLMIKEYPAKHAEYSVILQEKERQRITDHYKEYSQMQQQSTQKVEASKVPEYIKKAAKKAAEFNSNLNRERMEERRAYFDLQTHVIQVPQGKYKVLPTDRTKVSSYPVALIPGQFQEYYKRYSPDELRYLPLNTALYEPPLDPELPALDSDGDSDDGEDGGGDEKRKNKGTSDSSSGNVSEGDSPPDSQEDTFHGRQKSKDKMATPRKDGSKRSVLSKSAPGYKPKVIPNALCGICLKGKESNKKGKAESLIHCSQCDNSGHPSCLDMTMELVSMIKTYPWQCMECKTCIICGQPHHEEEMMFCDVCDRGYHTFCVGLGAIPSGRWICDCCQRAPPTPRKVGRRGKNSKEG
In words: co-IP; the same anti-PHF10 immunoaffinity-purified complexes (PBAF and dcPBAF from P1 and P56 brain nuclear extracts after MonoS and Superose 6), BAF200 detected by Western blot. (In general: Immunoblotting shows a protein as a band on a membrane.)

Sequences of proteins named here, by UniProt entry; tags and fusion partners are left off.
UniProt E9Q7E2: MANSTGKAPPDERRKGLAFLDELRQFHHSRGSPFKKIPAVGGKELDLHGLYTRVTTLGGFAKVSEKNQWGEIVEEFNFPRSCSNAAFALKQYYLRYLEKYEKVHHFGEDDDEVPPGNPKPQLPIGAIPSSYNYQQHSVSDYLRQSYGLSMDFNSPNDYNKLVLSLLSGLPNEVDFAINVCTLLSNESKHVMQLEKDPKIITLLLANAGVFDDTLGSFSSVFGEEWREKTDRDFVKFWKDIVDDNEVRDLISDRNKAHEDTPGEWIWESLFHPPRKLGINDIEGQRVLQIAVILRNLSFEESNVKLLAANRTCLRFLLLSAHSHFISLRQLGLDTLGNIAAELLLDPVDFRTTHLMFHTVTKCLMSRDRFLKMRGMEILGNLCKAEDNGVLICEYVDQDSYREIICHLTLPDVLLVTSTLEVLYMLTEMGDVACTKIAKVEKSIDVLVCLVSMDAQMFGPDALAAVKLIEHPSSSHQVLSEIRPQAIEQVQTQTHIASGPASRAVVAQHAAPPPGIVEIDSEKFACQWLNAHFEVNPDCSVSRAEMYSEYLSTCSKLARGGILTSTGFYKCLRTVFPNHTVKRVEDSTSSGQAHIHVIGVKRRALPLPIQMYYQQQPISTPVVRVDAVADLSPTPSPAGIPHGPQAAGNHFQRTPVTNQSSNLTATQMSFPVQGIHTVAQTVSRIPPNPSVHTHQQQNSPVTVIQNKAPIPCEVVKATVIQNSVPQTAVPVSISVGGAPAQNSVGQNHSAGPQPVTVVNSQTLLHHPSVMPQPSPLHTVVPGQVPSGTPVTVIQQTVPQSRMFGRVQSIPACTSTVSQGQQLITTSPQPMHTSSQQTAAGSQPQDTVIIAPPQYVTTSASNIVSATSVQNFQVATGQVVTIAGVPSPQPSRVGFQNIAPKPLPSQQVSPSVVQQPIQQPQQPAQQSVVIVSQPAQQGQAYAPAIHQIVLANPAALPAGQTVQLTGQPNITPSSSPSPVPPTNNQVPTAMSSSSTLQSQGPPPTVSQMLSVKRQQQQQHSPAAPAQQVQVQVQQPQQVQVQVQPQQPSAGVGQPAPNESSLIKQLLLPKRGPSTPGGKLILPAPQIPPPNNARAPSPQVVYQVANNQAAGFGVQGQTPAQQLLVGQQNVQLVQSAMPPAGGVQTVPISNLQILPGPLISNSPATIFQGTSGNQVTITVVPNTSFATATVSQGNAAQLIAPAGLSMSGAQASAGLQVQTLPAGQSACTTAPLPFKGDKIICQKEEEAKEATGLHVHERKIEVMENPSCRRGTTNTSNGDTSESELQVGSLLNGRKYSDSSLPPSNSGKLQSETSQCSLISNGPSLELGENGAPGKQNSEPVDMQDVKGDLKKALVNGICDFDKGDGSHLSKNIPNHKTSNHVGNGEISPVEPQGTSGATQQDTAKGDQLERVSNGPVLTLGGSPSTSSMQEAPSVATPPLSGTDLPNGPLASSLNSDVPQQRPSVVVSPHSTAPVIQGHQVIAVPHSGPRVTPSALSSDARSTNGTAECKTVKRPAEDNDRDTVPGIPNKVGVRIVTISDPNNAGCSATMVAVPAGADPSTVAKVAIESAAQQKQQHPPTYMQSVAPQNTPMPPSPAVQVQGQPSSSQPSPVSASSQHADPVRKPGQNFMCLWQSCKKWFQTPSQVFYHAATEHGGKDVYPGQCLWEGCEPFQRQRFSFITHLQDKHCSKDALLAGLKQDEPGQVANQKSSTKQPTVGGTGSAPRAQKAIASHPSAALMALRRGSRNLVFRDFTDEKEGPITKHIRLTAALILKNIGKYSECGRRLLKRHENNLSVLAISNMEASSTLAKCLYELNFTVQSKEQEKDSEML

Experiment [2] deals with T2, BRD7 (mouse (endogenous in brain)) (UniProt O88665).
T2 sequence: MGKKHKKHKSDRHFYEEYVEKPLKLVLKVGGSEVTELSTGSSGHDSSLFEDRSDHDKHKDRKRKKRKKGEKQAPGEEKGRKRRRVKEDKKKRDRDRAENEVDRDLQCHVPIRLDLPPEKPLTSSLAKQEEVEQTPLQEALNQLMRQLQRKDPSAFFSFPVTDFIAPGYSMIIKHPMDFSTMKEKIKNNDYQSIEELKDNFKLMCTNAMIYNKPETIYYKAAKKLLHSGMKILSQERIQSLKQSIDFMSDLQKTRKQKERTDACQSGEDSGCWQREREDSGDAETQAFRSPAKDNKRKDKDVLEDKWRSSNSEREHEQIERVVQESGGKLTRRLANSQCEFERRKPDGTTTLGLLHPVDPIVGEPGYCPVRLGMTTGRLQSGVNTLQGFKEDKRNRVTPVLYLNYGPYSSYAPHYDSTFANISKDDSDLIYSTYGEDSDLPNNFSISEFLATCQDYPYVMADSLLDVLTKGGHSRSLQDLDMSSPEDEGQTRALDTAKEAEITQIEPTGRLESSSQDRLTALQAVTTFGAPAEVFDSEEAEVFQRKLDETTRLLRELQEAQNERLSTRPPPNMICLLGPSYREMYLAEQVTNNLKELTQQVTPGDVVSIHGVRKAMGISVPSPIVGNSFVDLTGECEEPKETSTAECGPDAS
In words: co-IP; co-immunoprecipitation from P1 and P56 mouse brain extracts with antibodies against PHF10 and, reciprocally, against BRD7 (Supplementary Figure S3); methods not shown.

In experiment [3] the target is T1, PHF10A isoform of PHF10 (mouse (endogenous in brain)). The experiment is described as above.

These are yes or no findings as the source states them, for the method shown. In cells and extracts the contact can be indirect. Some entries that bind do so weakly or less than the wild type.

Consider “BAF200/ARID2 (from UniProt E9Q7E2 1-1828)”, for which, in experiment [1], the binding entry is “binds”.

B1: PHF10A isoform of PHF10 (protein, UniProt Q9D8M7 1-497)
chain: MTAAGPGAAPSPGRCDSDPASPGAQSPKDDNEDNSNDGTHPCKRRRMGSGDSSRSCETSSQDLSFSYYPAENLIEYKWPPDETGEYYMLQEQVSEYLGVTSFKRKYPDLERRDLSHKEKLYLRELNVITETQCTLGLTALRSDEVIDLMIKEYPAKHAEYSVILQEKERQRITDHYKEYSQMQQQSTQKVEASKVPEYIKKAAKKAAEFNSNLNRERMEERRAYFDLQTHVIQVPQGKYKVLPTDRTKVSSYPVALIPGQFQEYYKRYSPDELRYLPLNTALYEPPLDPELPALDSDGDSDDGEDGGGDEKRKNKGTSDSSSGNVSEGDSPPDSQEDTFHGRQKSKDKMATPRKDGSKRSVLSKSAPGYKPKVIPNALCGICLKGKESNKKGKAESLIHCSQCDNSGHPSCLDMTMELVSMIKTYPWQCMECKTCIICGQPHHEEEMMFCDVCDRGYHTFCVGLGAIPSGRWICDCCQRAPPTPRKVGRRGKNSKEG
For B1, in experiment [2], the binding result is on record as “binds”.

B2: BRD7 (protein, UniProt O88665 1-651)
chain: MGKKHKKHKSDRHFYEEYVEKPLKLVLKVGGSEVTELSTGSSGHDSSLFEDRSDHDKHKDRKRKKRKKGEKQAPGEEKGRKRRRVKEDKKKRDRDRAENEVDRDLQCHVPIRLDLPPEKPLTSSLAKQEEVEQTPLQEALNQLMRQLQRKDPSAFFSFPVTDFIAPGYSMIIKHPMDFSTMKEKIKNNDYQSIEELKDNFKLMCTNAMIYNKPETIYYKAAKKLLHSGMKILSQERIQSLKQSIDFMSDLQKTRKQKERTDACQSGEDSGCWQREREDSGDAETQAFRSPAKDNKRKDKDVLEDKWRSSNSEREHEQIERVVQESGGKLTRRLANSQCEFERRKPDGTTTLGLLHPVDPIVGEPGYCPVRLGMTTGRLQSGVNTLQGFKEDKRNRVTPVLYLNYGPYSSYAPHYDSTFANISKDDSDLIYSTYGEDSDLPNNFSISEFLATCQDYPYVMADSLLDVLTKGGHSRSLQDLDMSSPEDEGQTRALDTAKEAEITQIEPTGRLESSSQDRLTALQAVTTFGAPAEVFDSEEAEVFQRKLDETTRLLRELQEAQNERLSTRPPPNMICLLGPSYREMYLAEQVTNNLKELTQQVTPGDVVSIHGVRKAMGISVPSPIVGNSFVDLTGECEEPKETSTAECGPDAS
As for B2, in experiment [3], the binding result is recorded as “binds”.

Source of the values: article PMC10682186.
